# Measurements from PubChem BioAssay AID493014 (National Center for Advancing Translational Sciences (NCATS), 2011).
# Values joined by “and” are separate entries in the source; they are usually repeats but may differ in a detail not shown here. Equal values may be shown once. Some of the results follow. Further columns of the screen follow, without active or inactive calls. Compounds called inactive in the main read-out are mostly missing here. The note in brackets gives the kind of curve behind each potency; many fits are weak.
# Assay: qHTS Assay to Find Inhibitors of Chronic Active B-Cell Receptor Signaling
# Conditions: ABC-DLBCL IkBa-CBG/CBR reporter, luminescence ratio (green luciferase fused to IkBa over red control in TMD8 lymphoma cells), 4 h
# Method in brief: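 Doxycycline induced both beetle luciferases in TMD8 lymphoma cells; IKK-driven degradation limits the IkappaBalpha-fused green signal, while red luminescence normalises for cell number and nonspecific effects. Compounds tested up to 46 uM, 4 hrs.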
# [1] = measured here: CBR red luminescence, cell number
# [2] = measured here: IkBa-CBG green luminescence
SMILES,AC50 [1],AC50 [2]
O=C(NC(=S)Nc1ccccn1)c1cncc(Br)c1,"0.517 µM [rising, full curve, poor fit]","29.1 µM [falling, single point]"
COc1ccc(-c2cc(-c3n[nH]c(=S)n3-c3ccccc3OC)[nH]n2)cc1,"3.66 µM [falling, partial curve, poor fit]",–
CCc1ccc(CN(C)C(=O)C2CCC(=O)N(Cc3cccc(OC)c3)C2)nc1 (stereo unspecified),"35.5 µM [falling, single point]",–
O=C(COc1ccccc1-c1ccccc1)NCc1ccco1,"7.94 µM [falling, partial curve, poor fit]",–
COc1cccc(NC(=O)C(C)Oc2ccccc2)c1 (stereo unspecified),"22.4 µM [rising, single point]",–
COc1cc(NC(=O)c2onc(C)c2Cl)cc(OC)c1OC,"5.62 µM [falling, partial curve, poor fit]",–
CC(C)Cn1c(N)c(S(=O)(=O)c2cccs2)c2nc3ccccc3nc21,"9.2 µM [falling, partial curve, poor fit]",–
CN(c1ccc(Cl)cc1)S(=O)(=O)c1nnc(NC(=O)C(C)(C)C)s1,"35.5 µM [falling, partial curve, poor fit]",–
CC(C)c1ccccc1NC(=O)CN1C(=O)c2ccccc2C1=O,"0.794 µM [rising, full curve, poor fit]",–
Cc1ccc(C2(C)NC(=O)N(CC(=O)Nc3nc(-c4ccccn4)cs3)C2=O)cc1 (stereo unspecified),"20.6 µM [falling, partial curve, poor fit]",–
O=C(COc1ccc2ccccc2c1)Nc1cccnc1Cl,"6.31 µM [rising, partial curve, poor fit]",–
COc1ccc(-c2nc3ccccc3c(=O)n2CCN2CCOCC2)cc1,"0.206 µM [rising, full curve, poor fit]",–
CCOC(=O)c1[nH]c2ccccc2c1NC(=O)c1ccc2c(c1)OCO2,"11.2 µM [rising, partial curve, poor fit]",–
O=[N+]([O-])c1cc(/C=N/O)ccc1Oc1cccc(Cl)c1,"0.282 µM [rising, full curve, poor fit]",–
Cc1ccc(S(=O)(=O)Cc2ccc(C(=O)N3CCN(c4cccc(C)c4C)CC3)o2)cc1,"35.5 µM [falling, single point]","10 µM [falling, partial curve] and 11.2 µM [falling, partial curve]"
CCOC(=O)c1c(NC(=O)CSc2c[nH]c3ccccc23)sc2c1CCC2,–,"29.1 µM [rising, partial curve, poor fit]"
CC(=O)c1cccc(NC(=O)/C=C/c2ccc([N+](=O)[O-])s2)c1,"0.398 µM [falling, full curve, poor fit]",–
CCOc1ccc2oc(-c3ccccc3)c(C(=O)O)c2c1,"18.4 µM [falling, single point]",–
Cc1cc(C(=O)CSc2nc(N)cc(=O)[nH]2)c(C)n1-c1ccc(OC(F)F)cc1,"0.355 µM [falling, partial curve, poor fit]",–
Nc1c(C(=O)Nc2nc3ccccc3s2)sc2nc(-c3cccs3)ccc12,"3.55 µM [falling, full curve, poor fit]",–
CCCCCn1c(N)c(-c2nc3ccccc3s2)c2c([N+](=O)[O-])nn(CC)c(=O)c21,"3.66 µM [falling, full curve]",–

SMILES,AC50 [1],AC50 [2]
Cc1c(NC(=S)NC(=O)c2sc3ccccc3c2Cl)cccc1C(=O)O,"0.355 µM [falling, full curve]",–
CC(=O)Nc1nc2ccccc2n1Cc1ccccc1C,"11.6 µM [rising, partial curve, poor fit]",–
Cc1nc2cc(C(F)(F)F)ccc2n1CCNc1nc(-c2ccc([N+](=O)[O-])c(Cl)c2)cs1,"35.5 µM [falling, single point]","35.5 µM [rising, partial curve, poor fit]"
COc1ccc(OCCNc2cc(Cl)ccc2[N+](=O)[O-])cc1,"18.4 µM [rising, partial curve, poor fit]",–
CCCCC[C@H](O)/C=C/[C@H]1C=CC(=O)[C@@H]1C/C=C\CCCC(=O)O,"0.651 µM [rising, full curve, poor fit]","1.84 µM [falling, full curve]"
CCOc1ncccc1C(=O)OCC(=O)NCCc1ccc(S(N)(=O)=O)cc1,"18.4 µM [rising, single point]",–
Cc1ccc2[nH]c(-c3cccc(N)c3)cc2c1,"1.58 µM [rising, full curve, poor fit]",–
Cc1nc2sc(C(c3ccco3)N3CCC(Cc4ccccc4)CC3)c(O)n2n1 (stereo unspecified),"20.6 µM [rising, single point]",–
Cc1ccc(S(=O)(=O)N2CCN(C(=O)CCCOc3cccc(C)c3)CC2)cc1,"13 µM [rising, partial curve]",–
Cc1cc(C(=O)Nc2ccncc2)c2ccccc2n1,"15.8 µM [falling, single point]",–
CCOC(=O)c1[nH]c2ccc(F)cc2c1NC(=O)CN1CCc2cc(OC)c(OC)cc2C1,"12.6 µM [falling, single point]",–
CC(=O)N1CCc2c(sc3c2c(=O)n(-c2ccccc2)c(=O)n3CC(=O)Nc2ccccc2)C1,"0.794 µM [rising, partial curve, poor fit]",–
Cc1ccccc1NC(=O)CSc1nc2ccccc2o1,"0.411 µM [falling, full curve, poor fit]",–
Cc1ccccc1S(=O)(=O)c1c(C)cc(C)n(C(C)C)c1=O,"11.2 µM [rising, single point]",–
CCCOc1ccc(NC(=O)C2CC(=O)N(C)C(=Nc3cccc(OC)c3)S2)cc1 (stereo unspecified),"2.82 µM [rising, partial curve, poor fit]",–
CCCC(=O)Nc1ccc2c(c1)nc(CCN1CCN(c3ccccn3)CC1)n2C,"0.112 µM [rising, full curve, poor fit]",–
COc1ccc2c(c1)CC/C(=C/c1ccccn1)C2=O,"12.6 µM [falling, partial curve]",–
COc1ccc2c(c1)SC(C)CC2=O (stereo unspecified),"5.8 µM [rising, partial curve, poor fit]",–
CCOC(=O)Cc1csc(/C(=N/O)C(N)=O)n1,"4.61 µM [rising, single point]",–
CC(C)C(NS(=O)(=O)c1cccc2nsnc12)C(=O)N1CCn2c1nc1ccccc12 (stereo unspecified),"0.103 µM [falling, full curve, poor fit]",–
COC(=O)C1CCN(C(=O)COC(=O)Cc2c[nH]c3ccccc23)CC1,"35.5 µM [falling, single point]",–

SMILES,AC50 [1],AC50 [2]
C/C(=N\NC(=O)c1ccc(O)cc1O)c1cccnc1,"5.01 µM [falling, partial curve]",–
O=C(Nc1ccc(S(=O)(=O)NC2CCCCC2)cc1)c1ccc(Br)o1,"29.1 µM [falling, single point]",–
Cc1cccc(NC(=O)c2ccc3c(c2)OCCO3)c1,"7.94 µM [falling, partial curve]",–
O=C(NC1CCCCC1)/C(=N\O)c1ccccn1,"0.562 µM [rising, full curve, poor fit]",–
O=C(CSc1nnc(Cn2nnc3ccccc32)o1)N(Cc1ccc(F)cc1)c1ccccc1,"35.5 µM [falling, single point]",–
CC1CCN(c2nc(-c3ccccc3)c(C#N)c(=O)[nH]2)CC1,"0.058 µM [rising, full curve, poor fit]",–
O=C(Cc1ccccc1)N/N=C/C=C/c1cccc([N+](=O)[O-])c1,"20 µM [rising, partial curve, poor fit]",–
Cc1csc(NC(=O)NCC2CCCC(CNC(=O)Nc3nc(C)cs3)C2)n1 (stereo unspecified),"5.62 µM [falling, full curve]",–
CCNc1nc(NCC)nc(-n2nc(C)cc2C)n1,–,"12.6 µM [falling, partial curve, poor fit]"
COc1ccc(NC(=O)c2ccc(OC)cc2)cc1,"6.31 µM [rising, single point]",–
CCOC(=O)C1(Cc2ccc(OC)cc2)CCN(C(=O)c2cc3ccccc3[nH]2)CC1,"0.282 µM [rising, full curve, poor fit]",–
CN(C)c1ccc(/C=N/NC(=O)c2ccc(Cn3cc(Br)cn3)o2)cc1,"4.61 µM [falling, partial curve, poor fit]",–
CCOC(=O)/C=C/[C@H]1CC2(CCO1)SCCCS2,"29.1 µM [rising, single point]",–
O=C(N/N=C/c1cccnc1)C1CC1(c1ccccc1)c1ccccc1 (stereo unspecified),"8.91 µM [falling, partial curve]",–
O=C(NCc1ccc(F)cc1)c1ccc(CS(=O)(=O)c2ccc(Br)cc2)o1,"35.5 µM [falling, single point]",–
CC(C)CC(=O)Nc1cccc(-c2csc(-c3ccccc3)n2)c1,"29.1 µM [falling, single point]",–
Cc1ccc(NC(=O)C2CC2c2ccccc2)c([N+](=O)[O-])c1 (stereo unspecified),"1.41 µM [rising, full curve, poor fit]",–
Clc1ccc(-c2csc(N3CCOCC3)n2)cc1,"15.8 µM [rising, partial curve, poor fit]",–
Cc1c(NC(=O)CSc2nncc3ccccc23)c(=O)n(-c2ccccc2)n1C,"11.6 µM [falling, partial curve]",–
COc1ccc2[nH]c(O)c(NC(C)=O)c2c1,"6.51 µM [falling, single point]",–

# 6 compounds drawn at random from those above, as already listed:
SMILES,AC50 [1],AC50 [2]
CCOC(=O)C1(Cc2ccc(OC)cc2)CCN(C(=O)c2cc3ccccc3[nH]2)CC1,"0.282 µM [rising, full curve, poor fit]",–
Cc1ccc(NC(=O)C2CC2c2ccccc2)c([N+](=O)[O-])c1 (stereo unspecified),"1.41 µM [rising, full curve, poor fit]",–
O=C(Nc1ccc(S(=O)(=O)NC2CCCCC2)cc1)c1ccc(Br)o1,"29.1 µM [falling, single point]",–
COc1ccc(NC(=O)c2ccc(OC)cc2)cc1,"6.31 µM [rising, single point]",–
O=C(NCc1ccc(F)cc1)c1ccc(CS(=O)(=O)c2ccc(Br)cc2)o1,"35.5 µM [falling, single point]",–
Cc1cccc(NC(=O)c2ccc3c(c2)OCCO3)c1,"7.94 µM [falling, partial curve]",–
